Data reported in PubChem BioAssay AID493014 (National Center for Advancing Translational Sciences (NCATS), 2011).
About 170 (0.05%) of roughly 340,000 compounds were called active. This list was built around the results that the source calls inconclusive (neither active nor inactive); the mix of calls is not that of the screen. Calls come from the whole dose curve; as a rule, active = well fitted inhibition curve with a large enough effect in the signal ratio, with a control signal flat (not every such curve was filed as active); inconclusive = small, poorly fitted or top-dose-only effect, or effect the other way, or a change in a side signal; inactive = flat fitted curve, though single readings scatter; the % refers to the signal ratio. Potencies beside an inconclusive call are fits to weak or partial responses and may not hold up.

Assay: qHTS Assay to Find Inhibitors of Chronic Active B-Cell Receptor Signaling;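 for activity change, negative = inhibition: plate controls were basal doxycycline-induced cells for no effect and cells given 10 µM MG132 for full effect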
Conditions: ABC-DLBCL IkBa-CBG/CBR reporter, luminescence ratio (green luciferase fused to IkBa over red control in TMD8 lymphoma cells), 4 h; activity change, negative = inhibition: at 46.1 µM (top of the series)
Procedure, shortened: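 Compounds up to 46 uM were incubated four hours with TMD8 cells whose green CBG68 luciferase is fused to IkappaBalpha; red CBR luminescence normalised the signal, and concentration-effect curves were fitted to fusion, red and ratio data.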
Potency is the fitted concentration of half-maximal effect.

Row | Compound | activity change, negative = inhibition | Potency
1 | CSCC[C@H](NC(=O)OC(C)(C)C)C(=O)N/N=C/c1c(C)[nH]c(=O)[nH]c1=O | inconclusive: 5.37% | 
2 | Cc1ccc(NC(=O)c2ccc3ccccc3n2)nc1 |  | inconclusive: 16.4 µM [falling, single point]
3 | CN(C)S(=O)(=O)c1ccc(C(=O)OCC(=O)N2CC3(C)CC2CC(C)(C)C3)cc1 (stereo not given) | inconclusive: -8.13% | 
4 | c1ccc(C(c2ccccc2)c2noc(CN3CCN(C4CCCC4)CC3)n2)cc1 | inconclusive: 13.2% | 
5 | CCC1=NN(C(=O)c2ccc(Br)cc2)C(O)(c2ccc(C)cc2)C1 (stereo not given) | inconclusive: -19.8% | 
6 | CCOC(=O)c1cnc(SCc2ccc(C)cc2)nc1N | inconclusive: 13.7% | 
7 | O=C(NC(=S)Nc1ccccc1Cl)c1csnn1 |  | inconclusive: 35.5 µM [falling, single point]
8 | CC(=O)Nc1ccc2c(COC(=O)[C@@H](NS(=O)(=O)c3ccc(C)cc3)C(C)C)cc(=O)oc2c1 | inconclusive: -4.51% | 
9 | COc1ccc(Nc2c(-c3ccc(C)cc3)nc3cnccn23)cc1 | inactive: -10.1% | 
10 | Brc1ccc(-c2nc(N/N=C/c3cccnc3)c3ccccc3n2)cc1 |  | inconclusive: 0.517 µM [falling, full curve]
11 | O=C(O)c1nn(Cc2nc3ccccc3o2)c(=O)c2ccccc12 | inconclusive: 6.02% | 
12 | COCCNC(=S)N(CCc1c(C)[nH]c2ccc(C)cc12)Cc1ccco1 | inconclusive: -2.4% | 
13 | Cc1ccc(C)c(S(=O)(=O)NCc2ccc(C(=O)N3CC(C)OC(C)C3)cc2)c1 (stereo not given) | inactive: -1.08% | 
14 | O=C(NNC(=O)c1ccccc1O)c1cc2ccccc2o1 |  | inconclusive: 1.64 µM [rising, full curve, poor fit]
15 | O=C1CCc2cc(S(=O)(=O)NCCC(=O)N3CCN(c4cccc(Cl)c4)CC3)ccc2N1 | inactive: 5.67% | 
16 | CN1CCN(C(CNS(=O)(=O)c2ccc([N+](=O)[O-])cc2)c2ccc(F)cc2)CC1 (stereo not given) | inconclusive: -6.76% | 
17 | COc1ccc(Cn2c(C)c(C)c(C#N)c2NC(=O)Nc2ccc(F)cc2)cc1 | inconclusive: 4.3% | 
18 | CCc1ccc(C2NC(c3ccc(CC)cc3)C([N+](=O)[O-])C(C)(C)C2[N+](=O)[O-])cc1 (stereo not given) | inconclusive: 8.14% | 
19 | Cc1cccc(OCc2nc(C#N)c(N3CC(C)CC(C)C3)o2)c1 (stereo not given) |  | inconclusive: 29.1 µM [rising, single point]
20 | CCn1c(N)c(C(=O)NC)sc1=S | inactive: 5.52% | 
21 | CSc1ccc(C2=CC(=O)C[C@H](c3ccc4c(c3)OCO4)C2)cc1 | inactive: -6.32% | 
22 | CC(=O)Nc1ccc(S(=O)(=O)NCCSCc2ccc(Cl)cc2Cl)cc1 | inconclusive: -18.4% | 
23 | CCOc1ccc(-c2nnn(CCC#N)n2)cc1OC | inconclusive: 8.44% | 
24 | COc1ccc(Cc2noc(CN3CCCC(OCc4ccccn4)C3)n2)cc1OC (stereo not given) | inconclusive: 3.86% | 
25 | Clc1ccc(-n2cc(COCc3ccccc3)nn2)cc1 |  | inconclusive: 35.5 µM [rising, single point]

A second format for part of the listing above.
Brc1ccc(-c2nc(N/N=C/c3cccnc3)c3ccccc3n2)cc1
  Potency: inconclusive: 0.517 µM [falling, full curve]
Clc1ccc(-n2cc(COCc3ccccc3)nn2)cc1
  Potency: inconclusive: 35.5 µM [rising, single point]

Next part.

Row | Compound | activity change, negative = inhibition | Potency
26 | CN(C)c1ccc(/C=C/c2cc[n+]([O-])cc2)cc1 | inconclusive: -1.12% | 
27 | Cc1cccc(/C=N/NC(=O)c2cc(Br)ccc2O)n1 |  | inconclusive: 6.31 µM [cytotoxic, single point]
28 | Cc1cc(-n2c(C)cc(C(=O)COc3ccccc3[N+](=O)[O-])c2C)no1 |  | inconclusive: 35.5 µM [falling, partial curve, poor fit]
29 | COC(=O)CSc1nc(C)c(Oc2ccccc2)c(=O)[nH]1 | inconclusive: -63.5% | 
30 | Cc1cccc(NC(=O)CNC(=O)Cc2ccc3c(c2)OCCO3)c1C | inconclusive: -0.653% | 
31 | O=C(NCCCN1CCOCC1)c1cc2c([nH]c3ccccc32)c(-c2cccc(Br)c2)n1 |  | inconclusive: 35.5 µM [rising, single point]
32 | CCOC(=O)CSc1nnc(CNc2ccc(Cl)cc2)n1Cc1ccccc1 |  | inconclusive: 32.6 µM [falling, single point]
33 | O=C(Nc1ccccc1C(=O)O)c1ccc(NC(=O)c2ccc(Br)o2)cc1 | inactive: -3.48% | 
34 | COc1ccc2c(CC(=O)NCc3cccs3)coc2c1 |  | inconclusive: 25.1 µM [falling, single point]
35 | Cc1nc(C)c(C(=O)N/N=C/c2ccco2)s1 |  | inconclusive: 15.8 µM [falling, partial curve, poor fit]
36 | CN1CCSc2ccc(C(=O)Nc3ccc(Cl)cc3)cc21 |  | inconclusive: 3.16 µM [falling, full curve]
37 | COc1ccc(C=O)cc1COc1ccc([N+](=O)[O-])c(C)c1 | inconclusive: 3.13% | 
38 | Cc1onc(-c2ccccc2)c1C(=O)Nc1cc(C(F)(F)F)ccc1N1CCOCC1 |  | inconclusive: 17.8 µM [falling, single point]
39 | O=c1[nH]c2ccccc2c(=O)n1Cc1ccco1 | inconclusive: -3.33% | 
40 | CNC(=S)/N=C(\Nc1ccc(C)cc1)c1ccccc1 | inactive: -5.55% | 
41 | Cc1ccc(OCC(=O)NNC(=O)c2ccc(NC(=O)C3CC3)cc2)c(C)c1 | inconclusive: 4.01% | 
42 | Cc1nc(SCC(=O)c2ccccc2)c([N+](=O)[O-])[nH]1 |  | inconclusive: 28.2 µM [falling, single point]
43 | C=CCOC(=O)C1=C(C)Nc2[nH]c(=O)[nH]c(=O)c2C1c1cccc(OC)c1 (stereo not given) | inconclusive: 8.06% | 
44 | Cc1ccc(-c2nnn(CC(=O)N(c3cccc(F)c3)C(C(=O)NC(C)(C)C)c3ccco3)n2)o1 (stereo not given) |  | inconclusive: 11.2 µM [falling, partial curve]
45 | O=C(NCc1ccccc1)c1onc(CSc2ccccc2)c1C(=O)NCC1CC1 | inactive: 9.14% | 
46 | CCc1cc(/C(Cc2ccccn2)=N\Nc2ccccc2)c(O)cc1O | inactive: -2.52% | 
47 | CNC(=O)c1[nH]cnc1C(=O)N[C@@H](Cc1ccccc1)C(=O)OCc1ccccc1 | inconclusive: -4.86% | 
48 | COc1ccccc1NS(=O)(=O)c1ccc(NC(=O)c2ccncc2)cc1 | inconclusive: -1.85% | 
49 | COC(=O)c1sc2nc(CSc3nc4ccc(C)cc4[nH]3)[nH]c(=O)c2c1C | inactive: 7.81% | 
50 | COc1ccccc1NC(=S)NNC(=O)c1cc(C)nn1C |  | inconclusive: 16.4 µM [falling, partial curve]
